The values below come from PMC7819943, “Rice protein-binding microarrays: a tool to detect cis-acting elements near promoter regions in rice”.

Some of the results follow.

This assay deals with T1, OsSMF1 (Oryza sativa, UniProt Q6ZLB0 1-436).
T1 sequence: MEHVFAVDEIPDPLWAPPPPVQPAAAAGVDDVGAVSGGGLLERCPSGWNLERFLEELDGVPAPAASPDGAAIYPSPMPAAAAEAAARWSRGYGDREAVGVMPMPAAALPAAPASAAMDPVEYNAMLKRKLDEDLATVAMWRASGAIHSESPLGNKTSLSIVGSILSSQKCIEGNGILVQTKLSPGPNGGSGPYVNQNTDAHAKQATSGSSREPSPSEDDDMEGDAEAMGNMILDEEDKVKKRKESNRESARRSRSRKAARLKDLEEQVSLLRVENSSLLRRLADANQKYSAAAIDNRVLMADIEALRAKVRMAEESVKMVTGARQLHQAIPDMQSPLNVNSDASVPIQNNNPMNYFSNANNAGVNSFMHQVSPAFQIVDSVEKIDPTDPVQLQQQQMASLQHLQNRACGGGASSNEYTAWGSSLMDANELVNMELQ
Nature of the assay: protein-binding microarray (RPBM); PBS, 2% BSA, 51.3 ng/ul salmon testes DNA, 50 uM zinc acetate, 200 nM TF, 25 C, 1 h; high values mean tight binding. Conditions: protein: recombinant; tags: N-terminal polyhistidine and DsRed monomer fusion (pET32a); chain copies: 2; label: CyDye5-dUTP incorporated in the synthesized complementary strand; 3' TTTTT single-stranded linker to array surface; dsDNA, one strand shown. A digest of the protocol: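 Ni–NTA purification followed expression in E. coli BL21-CodonPlus of transcription factors fused N-terminally to a polyhistidine tag and DsRed. At 200 nM in PBS with 2% BSA, salmon testes DNA and 50 µM zinc acetate, the protein was incubated for 1 h at 25 °C with a custom Agilent array that had been primer-extended with Cy5-dUTP and blocked with 2% BSA. After washing, the array was read on an Axon 4000B scanner. The binding signal is per-feature fluorescence intensity in arbitrary units.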
As to “TCTCGCACTTTACACGTGGAATATGTAATTTGTTTTGTTACGGAGTCACCTAGTGCAG”, the binding signal is 7060 fluorescence intensity (a.u.).

As to “CCTCCGACATCTCCAGCCAATTCCAGCTCAGCTCTCGCCGCGGAGTCACCTAGTGCAG”, the binding signal was 4150 fluorescence intensity (a.u.).

For the sequence “GCATACTGCTAGTGTATACACGTACGTATACGGGAGTAGTCGGAGTCACCTAGTGCAG”, the binding signal is 5410 fluorescence intensity (a.u.).

In the case of “CTGCGAGGTGGTGGGAGGAAGCGGAAGCCGACGAGGAGCGCGGAGTCACCTAGTGCAG”, the binding signal was 25400 fluorescence intensity (a.u.).

“ACGCACACACACACACACGCTGACACACGAGACGAACACTCGGAGTCACCTAGTGCAG”: the binding signal was 4700 fluorescence intensity (a.u.).

In the case of “ATTTATAATATTGCTGATTTTCCCGAGCTGTTACAACTCCCGGAGTCACCTAGTGCAG”, the binding signal is 3260 fluorescence intensity (a.u.).

For “GGATAAAGGATAATGTACAGTAAGATGATCTAACGCCATGCGGAGTCACCTAGTGCAG”, the binding signal is 3370 fluorescence intensity (a.u.).

Turning to “CATTTGTGTTGATGTGTGTTGTGCTGGCTTATTTCATGTACGGAGTCACCTAGTGCAG”, the binding signal is 3920 fluorescence intensity (a.u.).

Regarding “TCACATCCACGTATATTCCCTTCCCCTTCTCCAACCTTTCCGGAGTCACCTAGTGCAG”, the binding signal is 9390 fluorescence intensity (a.u.).

Turning to “CTCCTCCTCCTCGTCATCGTCATCACCAGCACACACCCGACGGAGTCACCTAGTGCAG”, the binding signal was 4510 fluorescence intensity (a.u.).

“TTCCTATCATCTAAGGTAACCCTTGGTCATCACCGATTCACGGAGTCACCTAGTGCAG”: the binding signal was 3780 fluorescence intensity (a.u.).

Turning to “GGGACCACCAACCTCCATGACACGTCAGCGGCACATCCGCCGGAGTCACCTAGTGCAG”, the binding signal is 26000 fluorescence intensity (a.u.).

Take “TGCCATTGCCATTGGACACATCATCGCCATTTCTGACACTCGGAGTCACCTAGTGCAG”: the binding signal was 8500 fluorescence intensity (a.u.).

As to “ATTCTCGACCGAAACTGACGTCGCCGCAGTGGTGCAGCCGCGGAGTCACCTAGTGCAG”, the binding signal was 3590 fluorescence intensity (a.u.).

Regarding “GCGTATAAATACCGTGGCGTGGCGTGGCGCGGCACGGGACCGGAGTCACCTAGTGCAG”, the binding signal was 3420 fluorescence intensity (a.u.).

Take “AGTTAATGTATGTATGTGTGTTTTATATTATGAGACATTACGGAGTCACCTAGTGCAG”: the binding signal was 3200 fluorescence intensity (a.u.).

“ATCATCCCATCCCATCTCATCCGTCCATCCGCCAACTCATCGGAGTCACCTAGTGCAG”: the binding signal was 5490 fluorescence intensity (a.u.).

As to “CATCATCGTCAAGGCTGTGAACGCCGCCACCAGGGGCGCCCGGAGTCACCTAGTGCAG”, the binding signal is 9700 fluorescence intensity (a.u.).

In the case of “GGCTCATGCAACCAGCGAGGGCAGCCACGTGGGTCGTGTACGGAGTCACCTAGTGCAG”, the binding signal was 9880 fluorescence intensity (a.u.).

Turning to “AATAGTTTGGGACGTGTCTTCTCCGTCATTAGACTTCAAGCGGAGTCACCTAGTGCAG”, the binding signal was 6910 fluorescence intensity (a.u.).

Consider “ACAGTCGCCTTCTCCATCGTCTCGTCTTGGTAGGTGGTGGCGGAGTCACCTAGTGCAG”, for which the binding signal is 17800 fluorescence intensity (a.u.).

In the case of “CACCAAGTATGATGGGCCCATGGCCAATGATAATACCTCGCGGAGTCACCTAGTGCAG”, the binding signal was 29800 fluorescence intensity (a.u.).

For “GCCCACTCGTCGGTGTCCCGTGTCCGCCACGCTCTCGCCACGGAGTCACCTAGTGCAG”, the binding signal is 3270 fluorescence intensity (a.u.).

Regarding “TGGATCGTGTGGGTGACTCGGAGCTGAGCTGGGACCCACTCGGAGTCACCTAGTGCAG”, the binding signal is 3390 fluorescence intensity (a.u.).

Turning to “ATTTTCGTCGCGTCAACTTATATACGAAAGTTAATTAATGCGGAGTCACCTAGTGCAG”, the binding signal was 3290 fluorescence intensity (a.u.).

As for “AAAGATTGCCGAGTTTAATTGCAATCAATTACGGGAAGATCGGAGTCACCTAGTGCAG”, the binding signal is 33200 fluorescence intensity (a.u.).

For the sequence “TTTGTTTCGTTGTGTTAGAATATGTCATATTTCTTCATTACGGAGTCACCTAGTGCAG”, the binding signal was 3280 fluorescence intensity (a.u.).

On to “AGGTTCTTGACTCACCAGACCCATTTGTTGCCTCAGCCACCGGAGTCACCTAGTGCAG”, for which the binding signal is 4350 fluorescence intensity (a.u.).

Turning to “AGCGCGGGGCGGCGTTCGCGTCGCGCCCGCGCGGCGTCAGCGGAGTCACCTAGTGCAG”, the binding signal was 4260 fluorescence intensity (a.u.).

As to “ATATATATATATATATATATGTATGCATATATATGTATTGCGGAGTCACCTAGTGCAG”, the binding signal was 3440 fluorescence intensity (a.u.).

For the sequence “CTGCAACGTTTGGAGTTCCGCCATCAGACAAATTCCACCCCGGAGTCACCTAGTGCAG”, the binding signal was 3210 fluorescence intensity (a.u.).

On to “TGTATTTCCCACACAGATCCACGGCAACTGTCAGCAACATCGGAGTCACCTAGTGCAG”, for which the binding signal is 4290 fluorescence intensity (a.u.).

For the sequence “CGCACCGACCAAGCTGAGTGACGCGTCACGGCCCAGTTGACGGAGTCACCTAGTGCAG”, the binding signal is 5740 fluorescence intensity (a.u.).

Consider “GCCACACGATTTCTTCTGTGACGTGTGGCGTGAGATAACTCGGAGTCACCTAGTGCAG”, for which the binding signal is 4160 fluorescence intensity (a.u.).

In the case of “TAGTAACTATAAATCAATGGTTAAGATTTCTTTCAGTCCTCGGAGTCACCTAGTGCAG”, the binding signal is 3620 fluorescence intensity (a.u.).

With “CGAAATCTTTCCGTCACGGGCCATTTACGTGGCAGATCTTCGGAGTCACCTAGTGCAG”, the binding signal is 12300 fluorescence intensity (a.u.).

Consider “TCGCAACAACAAGAATGATGATGGCATGACGAAAATGCTACGGAGTCACCTAGTGCAG”, for which the binding signal is 3570 fluorescence intensity (a.u.).

For “AATACTCTGCAGTTCAGTCACGGGCAGAGTACACAGCTTACGGAGTCACCTAGTGCAG”, the binding signal is 20900 fluorescence intensity (a.u.).

For “TAAGCAAGCTAGCTTGATGCAGCAGCAAGAAAGCAATAATCGGAGTCACCTAGTGCAG”, the binding signal was 26200 fluorescence intensity (a.u.).

As for “TTTGATACCTATCAGCTGGTCAGCTCTGATCTTCCTGTTTCGGAGTCACCTAGTGCAG”, the binding signal was 3720 fluorescence intensity (a.u.).

Regarding “TGTCAACCACACGTTTCTCTGACTGTACATCAGAGAGTGTCGGAGTCACCTAGTGCAG”, the binding signal is 11500 fluorescence intensity (a.u.).

For “TGGGCCGCGAAATTGGCAAGCGGCCAAGCGGGTGCGTGAGCGGAGTCACCTAGTGCAG”, the binding signal was 3200 fluorescence intensity (a.u.).
